Reference: the supplement of paper PMC12819154, “High-throughput peptide-centric local stability assay extends protein–ligand identification to membrane proteins, tissues and bacteria” (Nature Structural & Molecular Biology, 2025)
This is one part of the list. Small differences around the control level are noise.

The chains behind the UniProt entries cited, without tags or fusion partners. Where a name states a change or a piece, a line headed by the entry shows the natural chain unless it says otherwise.
UniProt Q6P2H3: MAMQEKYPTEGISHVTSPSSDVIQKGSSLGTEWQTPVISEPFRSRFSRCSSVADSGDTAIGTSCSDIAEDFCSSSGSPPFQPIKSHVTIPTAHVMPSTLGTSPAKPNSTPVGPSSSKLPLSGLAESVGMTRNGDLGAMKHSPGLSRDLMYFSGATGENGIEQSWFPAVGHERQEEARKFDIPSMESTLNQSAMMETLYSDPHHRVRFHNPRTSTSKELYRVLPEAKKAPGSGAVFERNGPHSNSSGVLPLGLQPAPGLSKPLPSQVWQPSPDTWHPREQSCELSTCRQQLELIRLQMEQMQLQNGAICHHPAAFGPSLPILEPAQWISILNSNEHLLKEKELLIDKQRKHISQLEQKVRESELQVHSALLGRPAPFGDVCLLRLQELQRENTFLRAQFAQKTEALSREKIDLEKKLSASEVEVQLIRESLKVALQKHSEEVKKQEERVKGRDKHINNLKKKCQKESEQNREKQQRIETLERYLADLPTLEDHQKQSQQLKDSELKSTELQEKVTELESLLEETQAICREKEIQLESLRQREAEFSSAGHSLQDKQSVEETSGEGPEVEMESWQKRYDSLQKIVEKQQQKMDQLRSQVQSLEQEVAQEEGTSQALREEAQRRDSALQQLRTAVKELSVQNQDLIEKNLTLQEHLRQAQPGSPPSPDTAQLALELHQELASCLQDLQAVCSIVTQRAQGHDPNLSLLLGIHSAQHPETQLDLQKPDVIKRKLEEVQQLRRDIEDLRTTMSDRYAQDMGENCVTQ
UniProt Q6FI81: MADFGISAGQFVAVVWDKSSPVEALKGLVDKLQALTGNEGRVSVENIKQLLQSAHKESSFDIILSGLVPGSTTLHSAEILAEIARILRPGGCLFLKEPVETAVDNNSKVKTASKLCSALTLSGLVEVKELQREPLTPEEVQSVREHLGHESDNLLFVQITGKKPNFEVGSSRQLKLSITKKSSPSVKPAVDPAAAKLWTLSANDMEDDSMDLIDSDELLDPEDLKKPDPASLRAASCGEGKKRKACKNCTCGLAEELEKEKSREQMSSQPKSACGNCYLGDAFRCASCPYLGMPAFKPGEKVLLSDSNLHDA
UniProt Q5VZ66: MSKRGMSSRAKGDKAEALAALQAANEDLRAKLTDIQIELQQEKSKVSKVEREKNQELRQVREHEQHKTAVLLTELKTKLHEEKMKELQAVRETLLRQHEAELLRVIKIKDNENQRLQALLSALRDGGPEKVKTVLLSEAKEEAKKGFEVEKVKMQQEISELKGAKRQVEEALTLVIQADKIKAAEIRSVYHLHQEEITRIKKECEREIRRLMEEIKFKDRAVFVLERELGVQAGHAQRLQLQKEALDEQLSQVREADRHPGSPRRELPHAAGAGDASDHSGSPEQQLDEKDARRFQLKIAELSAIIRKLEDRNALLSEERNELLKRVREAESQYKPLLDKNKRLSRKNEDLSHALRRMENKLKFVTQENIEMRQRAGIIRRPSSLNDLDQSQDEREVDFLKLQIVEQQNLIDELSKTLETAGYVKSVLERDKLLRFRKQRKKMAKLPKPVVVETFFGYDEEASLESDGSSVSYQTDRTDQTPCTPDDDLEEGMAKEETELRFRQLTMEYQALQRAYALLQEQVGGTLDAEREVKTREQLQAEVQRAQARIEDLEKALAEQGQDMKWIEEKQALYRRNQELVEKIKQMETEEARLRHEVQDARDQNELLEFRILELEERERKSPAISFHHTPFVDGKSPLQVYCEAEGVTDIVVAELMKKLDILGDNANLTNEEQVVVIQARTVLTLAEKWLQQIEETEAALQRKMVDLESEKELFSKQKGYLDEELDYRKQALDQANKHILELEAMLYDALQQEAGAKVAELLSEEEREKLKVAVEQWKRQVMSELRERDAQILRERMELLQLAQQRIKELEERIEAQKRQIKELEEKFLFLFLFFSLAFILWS
UniProt Q5VTE6: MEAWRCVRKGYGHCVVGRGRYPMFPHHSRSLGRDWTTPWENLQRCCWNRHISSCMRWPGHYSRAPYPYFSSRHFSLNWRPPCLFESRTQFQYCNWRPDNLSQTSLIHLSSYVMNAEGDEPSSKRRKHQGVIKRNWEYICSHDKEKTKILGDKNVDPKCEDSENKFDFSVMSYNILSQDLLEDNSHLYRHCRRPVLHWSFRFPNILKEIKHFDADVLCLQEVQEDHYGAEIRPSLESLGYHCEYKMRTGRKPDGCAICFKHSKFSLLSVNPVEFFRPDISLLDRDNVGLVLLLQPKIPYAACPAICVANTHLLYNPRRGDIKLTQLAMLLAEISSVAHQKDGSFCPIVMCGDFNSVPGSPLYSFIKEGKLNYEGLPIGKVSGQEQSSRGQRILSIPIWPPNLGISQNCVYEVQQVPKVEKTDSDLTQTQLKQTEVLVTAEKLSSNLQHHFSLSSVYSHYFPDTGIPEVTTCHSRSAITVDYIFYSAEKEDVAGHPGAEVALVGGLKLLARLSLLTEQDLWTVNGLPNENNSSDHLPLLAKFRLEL
UniProt Q69YH5: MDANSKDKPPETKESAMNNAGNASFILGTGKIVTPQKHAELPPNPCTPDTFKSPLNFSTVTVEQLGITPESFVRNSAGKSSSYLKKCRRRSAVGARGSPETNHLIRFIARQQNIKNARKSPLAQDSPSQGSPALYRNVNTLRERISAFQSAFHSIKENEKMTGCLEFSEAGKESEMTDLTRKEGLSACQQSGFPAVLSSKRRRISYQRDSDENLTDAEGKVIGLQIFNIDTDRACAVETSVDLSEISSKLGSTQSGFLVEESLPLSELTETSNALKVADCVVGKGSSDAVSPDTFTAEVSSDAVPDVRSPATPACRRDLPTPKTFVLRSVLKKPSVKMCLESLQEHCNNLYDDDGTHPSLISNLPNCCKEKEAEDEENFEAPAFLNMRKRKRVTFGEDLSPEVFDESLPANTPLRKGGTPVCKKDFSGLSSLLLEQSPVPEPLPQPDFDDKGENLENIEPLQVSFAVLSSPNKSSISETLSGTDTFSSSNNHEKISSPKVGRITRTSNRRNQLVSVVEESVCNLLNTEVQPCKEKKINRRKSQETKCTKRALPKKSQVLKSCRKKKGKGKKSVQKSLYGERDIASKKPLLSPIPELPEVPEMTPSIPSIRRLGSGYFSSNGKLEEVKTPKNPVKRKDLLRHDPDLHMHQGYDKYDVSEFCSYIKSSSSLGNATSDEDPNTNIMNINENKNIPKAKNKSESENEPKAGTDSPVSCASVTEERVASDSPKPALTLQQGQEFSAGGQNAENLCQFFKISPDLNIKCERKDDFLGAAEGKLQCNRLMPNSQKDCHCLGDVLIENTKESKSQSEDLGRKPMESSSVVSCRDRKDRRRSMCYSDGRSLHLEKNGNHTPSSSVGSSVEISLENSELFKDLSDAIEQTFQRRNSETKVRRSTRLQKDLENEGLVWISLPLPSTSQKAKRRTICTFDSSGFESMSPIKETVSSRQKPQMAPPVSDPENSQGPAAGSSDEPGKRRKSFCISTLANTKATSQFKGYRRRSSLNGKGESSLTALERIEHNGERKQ
UniProt Q6P2D0: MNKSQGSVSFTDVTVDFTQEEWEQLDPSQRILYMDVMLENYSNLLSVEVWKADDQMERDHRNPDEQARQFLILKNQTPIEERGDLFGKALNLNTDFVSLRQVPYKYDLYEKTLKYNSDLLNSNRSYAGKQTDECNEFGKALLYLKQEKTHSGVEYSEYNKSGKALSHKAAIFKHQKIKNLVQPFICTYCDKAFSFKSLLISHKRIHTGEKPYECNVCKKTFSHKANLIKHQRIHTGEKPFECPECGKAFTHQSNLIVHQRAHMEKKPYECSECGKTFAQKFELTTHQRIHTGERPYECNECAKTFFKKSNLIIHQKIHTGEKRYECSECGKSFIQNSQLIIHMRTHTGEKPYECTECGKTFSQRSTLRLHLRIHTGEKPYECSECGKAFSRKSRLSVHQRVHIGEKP
UniProt Q6P1M9: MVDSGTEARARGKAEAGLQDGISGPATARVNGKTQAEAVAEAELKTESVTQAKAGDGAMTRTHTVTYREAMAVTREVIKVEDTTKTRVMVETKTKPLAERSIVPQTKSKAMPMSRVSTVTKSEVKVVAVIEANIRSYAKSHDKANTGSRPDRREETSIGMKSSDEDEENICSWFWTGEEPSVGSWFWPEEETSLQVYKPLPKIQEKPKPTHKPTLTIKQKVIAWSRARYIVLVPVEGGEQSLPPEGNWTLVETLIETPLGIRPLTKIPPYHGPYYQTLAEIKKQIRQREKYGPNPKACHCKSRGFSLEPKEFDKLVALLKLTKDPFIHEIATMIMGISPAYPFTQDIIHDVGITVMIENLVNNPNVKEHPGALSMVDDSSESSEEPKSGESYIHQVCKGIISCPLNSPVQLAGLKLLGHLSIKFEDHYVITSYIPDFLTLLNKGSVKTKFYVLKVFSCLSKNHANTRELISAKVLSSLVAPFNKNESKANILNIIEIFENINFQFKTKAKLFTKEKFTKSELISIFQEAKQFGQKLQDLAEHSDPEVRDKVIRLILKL
UniProt Q5VTB9: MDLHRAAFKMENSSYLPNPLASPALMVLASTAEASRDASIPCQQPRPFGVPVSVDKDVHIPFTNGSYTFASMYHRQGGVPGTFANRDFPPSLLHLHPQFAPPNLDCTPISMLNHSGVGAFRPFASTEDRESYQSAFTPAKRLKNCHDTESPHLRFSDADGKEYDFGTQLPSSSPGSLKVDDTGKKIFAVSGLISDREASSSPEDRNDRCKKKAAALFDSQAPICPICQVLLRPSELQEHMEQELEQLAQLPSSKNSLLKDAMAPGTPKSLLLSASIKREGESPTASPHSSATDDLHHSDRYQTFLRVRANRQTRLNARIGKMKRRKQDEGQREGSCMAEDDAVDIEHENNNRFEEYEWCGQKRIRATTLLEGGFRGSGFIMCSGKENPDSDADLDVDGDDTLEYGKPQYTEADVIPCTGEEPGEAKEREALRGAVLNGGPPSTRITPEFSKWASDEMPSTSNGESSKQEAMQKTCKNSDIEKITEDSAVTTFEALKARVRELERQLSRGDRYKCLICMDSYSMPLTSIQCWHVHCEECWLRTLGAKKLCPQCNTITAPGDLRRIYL
UniProt Q6PID6, whole entry: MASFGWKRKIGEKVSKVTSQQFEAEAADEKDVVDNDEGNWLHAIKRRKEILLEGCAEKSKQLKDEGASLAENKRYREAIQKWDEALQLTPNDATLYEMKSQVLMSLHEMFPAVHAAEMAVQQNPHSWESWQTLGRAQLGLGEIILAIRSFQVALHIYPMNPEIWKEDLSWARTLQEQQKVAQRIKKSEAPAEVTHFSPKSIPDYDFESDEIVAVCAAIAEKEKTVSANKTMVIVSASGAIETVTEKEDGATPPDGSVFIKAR
UniProt Q6IQ26: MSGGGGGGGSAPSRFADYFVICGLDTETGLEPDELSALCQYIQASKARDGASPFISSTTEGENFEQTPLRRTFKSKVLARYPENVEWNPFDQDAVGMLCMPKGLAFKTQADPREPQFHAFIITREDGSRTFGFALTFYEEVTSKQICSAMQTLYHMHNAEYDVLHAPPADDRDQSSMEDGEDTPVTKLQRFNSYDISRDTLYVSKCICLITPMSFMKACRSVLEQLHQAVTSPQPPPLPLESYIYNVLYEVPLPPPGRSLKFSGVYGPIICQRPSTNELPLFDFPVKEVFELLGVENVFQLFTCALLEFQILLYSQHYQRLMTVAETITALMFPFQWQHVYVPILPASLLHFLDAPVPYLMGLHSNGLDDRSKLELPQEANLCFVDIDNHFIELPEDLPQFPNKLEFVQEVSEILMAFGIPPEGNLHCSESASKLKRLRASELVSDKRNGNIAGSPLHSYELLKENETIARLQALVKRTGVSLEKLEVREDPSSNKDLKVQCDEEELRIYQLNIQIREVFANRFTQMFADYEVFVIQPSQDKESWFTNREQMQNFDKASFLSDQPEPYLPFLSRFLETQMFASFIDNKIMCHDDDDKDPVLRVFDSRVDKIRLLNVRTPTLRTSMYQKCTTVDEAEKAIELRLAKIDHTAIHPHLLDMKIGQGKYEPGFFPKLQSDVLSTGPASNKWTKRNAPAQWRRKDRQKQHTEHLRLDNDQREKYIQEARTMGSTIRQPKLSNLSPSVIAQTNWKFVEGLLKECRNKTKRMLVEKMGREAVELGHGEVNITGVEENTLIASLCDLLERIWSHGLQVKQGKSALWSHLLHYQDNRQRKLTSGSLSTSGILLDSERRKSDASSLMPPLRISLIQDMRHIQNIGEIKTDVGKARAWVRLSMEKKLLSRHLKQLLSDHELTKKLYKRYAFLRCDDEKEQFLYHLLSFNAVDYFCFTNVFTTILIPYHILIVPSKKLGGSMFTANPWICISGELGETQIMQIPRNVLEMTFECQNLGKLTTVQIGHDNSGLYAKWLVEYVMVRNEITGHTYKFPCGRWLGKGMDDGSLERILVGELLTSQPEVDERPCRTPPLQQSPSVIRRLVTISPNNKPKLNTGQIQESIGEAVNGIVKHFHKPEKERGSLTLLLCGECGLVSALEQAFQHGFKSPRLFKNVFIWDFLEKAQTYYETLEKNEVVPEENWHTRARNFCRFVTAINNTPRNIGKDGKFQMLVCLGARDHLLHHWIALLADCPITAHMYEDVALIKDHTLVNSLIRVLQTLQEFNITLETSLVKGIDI

compound: Cc1nc(Nc2ncc(C(=O)Nc3c(C)cccc3Cl)s2)cc(N2CCN(CCO)CC2)n1 [dasatinib]; experiment: log2 fold change of tryptic peptide abundance, ligand vs vehicle (limited proteolysis) (log2 ratio); higher = more trypsin-susceptible (destabilized); settings: ligand concentration: 5 uM; sample: K562 cleared lysate

Target	log2 fold change
ARID2 (peptide sequence: IPQNPSPHTHQQQNAPVTVIQSK, peptide start residue: 684) (UniProt Q68CP9)	0.189
UniProt Q6NT16 (peptide sequence: SQNILSTEEER, peptide start residue: 438)	0.137
UniProt Q6P2H3 (peptide sequence: ELLIDKQR, peptide start residue: 341)	-0.362
UniProt Q6IAA8 (peptide sequence: LAVLSSSLTHWK, peptide start residue: 92)	-0.227
UniProt Q6P444 (peptide sequence: QNSHWDPVSLISHALK, peptide start residue: 303)	-0.607
RSBN1L (peptide sequence: LDHVQFAEFK, peptide start residue: 790) (UniProt Q6PCB5)	-0.433
NCAPH2 (peptide sequence: AKQLSSVQEDR, peptide start residue: 91) (UniProt Q6IBW4)	0.295
AMMECR1L (peptide sequence: LAAGCCGVK, peptide start residue: 14) (UniProt Q6DCA0)	-0.0679
FAM160B1 (peptide sequence: SSYHVEGTGYDTYLR, peptide start residue: 582) (UniProt Q5W0V3)	-0.196
UniProt Q6NSI8 (peptide sequence: KFTRQPK, peptide start residue: 589)	-0.0294
CIAPIN1 (peptide sequence: EPVETAVDNNSK, peptide start residue: 97) (UniProt Q6FI81)	0.382
UniProt Q5VZ66 (peptide sequence: EQLQAEVQR, peptide start residue: 537)	0.15
ANGEL2 (peptide sequence: NWEYICSHDKEK, peptide start residue: 134) (UniProt Q5VTE6)	0.124
ARL6IP4 (peptide sequence: EKAEAQQVEALPGPSLDQWHR, peptide start residue: 127) (UniProt Q66PJ3)	0.0935
UniProt Q6PIY7 (peptide sequence: FHSPHQEPTVVNQIVPLSGER, peptide start residue: 93)	-0.642
ZFYVE26 (peptide sequence: RIDHVLLNADGIR, peptide start residue: 1009) (UniProt Q68DK2)	0.516
PMF1 (peptide sequence: ELVAVLREPE, peptide start residue: 196) (UniProt Q6P1K2)	0.0646
FIGNL1 (peptide sequence: RLYIPLPEASAR, peptide start residue: 562) (UniProt Q6PIW4)	0.471
CWF19L1 (peptide sequence: IKKNFPLQFGR, peptide start residue: 481) (UniProt Q69YN2)	-0.746
UniProt Q6PFW1 (peptide sequence: SKPMTQILER, peptide start residue: 68)	0.317
UniProt Q6ICG6 (peptide sequence: NNRPAFFSPSLKR, peptide start residue: 297)	0.404
CDCA2 (peptide sequence: KDDFLGAAEGK, peptide start residue: 766) (UniProt Q69YH5)	0.263
ZFP1 (peptide sequence: DHRNPDEQAR, peptide start residue: 59) (UniProt Q6P2D0)	-0.286
ARMCX5 (peptide sequence: SELISIFQEAK, peptide start residue: 520) (UniProt Q6P1M9)	0.188
HEATR6 (peptide sequence: SAAALSVPGKR, peptide start residue: 1020) (UniProt Q6AI08)	-0.281
RNF220 (peptide sequence: KLCPQCNTITAPGDLRR, peptide start residue: 547) (UniProt Q5VTB9)	0.145
TTC33 (peptide sequence: KEILLEGCAEK, peptide start residue: 48) (UniProt Q6PID6)	-1.19
DENND5A (peptide sequence: FVTAINNTPR, peptide start residue: 1201) (UniProt Q6IQ26)	-0.224

Random excerpt: 2 entries already listed
Target	log2 fold change
UniProt Q6PIY7 (peptide sequence: FHSPHQEPTVVNQIVPLSGER, peptide start residue: 93)	-0.642
UniProt Q6ICG6 (peptide sequence: NNRPAFFSPSLKR, peptide start residue: 297)	0.404
